Laboratory results: PubChem BioAssay AID1508588 (Peter MacCallum Cancer Centre, 2020)
This is one part, drawn at random, of about 18,000 deposited reagents. 790 of all reagents (4.4%) count as active. 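Calls rest on a combination of fold-change classes in drug and vehicle arms, not all shown here.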 The numbers tell different reagents against one gene apart. No sequences are given here.

Assay: 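Which gene losses make BRAF-mutant melanoma cells more responsive to vemurafenib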 (primary screen)
Cells: human WM266.4 melanoma cells (BRAF V600 mutant)
Reagents: siRNA pool against human genes, 40 nM
Time to read-out: 96 h from transfection to read-out
Treatment: vemurafenib 300 nM (about IC25), added 48 h after transfection, for 48 h; comparison arm got DMSO vehicle only
Detection: 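Ratios to non-targeting siRNA for cell gain, counted as DAPI nuclei after minus before drug and averaged over two replicates, and for absorbance-read medium lactate per cell; both binned into fold-change classes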
Direction: cell gain with vemurafenib: higher = more cell gain than with non-targeting siRNA; lactate per cell with vemurafenib: higher = more lactate made per cell
Rule for the call: 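a knock-down counts as enhancing when its fold-change classes with vehicle and with vemurafenib, taken together, show a stronger drug effect on cell gain or lactate per cell; exact class pairs not stated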
Meaning of the calls: active = enhances vemurafenib effect; inactive = no enhancement seen

The opening 2 entries, ahead of the listing:
{"gene": "TTYH3", "reagent": 1, "cell gain with vemurafenib": 0.46, "lactate per cell with vemurafenib": 0.95, "Outcome": "inactive"}
{"gene": "NEBL", "reagent": 1, "cell gain with vemurafenib": 0.95, "lactate per cell with vemurafenib": 0.95, "Outcome": "inactive"}

Results, repeating the preview:
{"gene": "TTYH3", "reagent": 1, "cell gain with vemurafenib": 0.46, "lactate per cell with vemurafenib": 0.95, "Outcome": "inactive"}
{"gene": "NEBL", "reagent": 1, "cell gain with vemurafenib": 0.95, "lactate per cell with vemurafenib": 0.95, "Outcome": "inactive"}
{"gene": "NEBL", "reagent": 2, "cell gain with vemurafenib": 0.67, "lactate per cell with vemurafenib": 0.67, "Outcome": "inactive"}
{"gene": "BLCAP", "reagent": 1, "cell gain with vemurafenib": 0.91, "lactate per cell with vemurafenib": 0.52, "Outcome": "inactive"}
{"gene": "WFDC13", "reagent": 1, "cell gain with vemurafenib": -0.05, "lactate per cell with vemurafenib": -0.02, "Outcome": "active"}
{"gene": "MARCHF7", "reagent": 1, "cell gain with vemurafenib": 1.03, "lactate per cell with vemurafenib": 0.82, "Outcome": "inactive"}
{"gene": "PVRIG", "reagent": 1, "cell gain with vemurafenib": 0.66, "lactate per cell with vemurafenib": 1.17, "Outcome": "inactive"}
{"gene": "COMMD5", "reagent": 1, "cell gain with vemurafenib": 0.63, "lactate per cell with vemurafenib": 1.28, "Outcome": "inactive"}
{"gene": "OR10A7", "reagent": 1, "cell gain with vemurafenib": 0.66, "lactate per cell with vemurafenib": 1.54, "Outcome": "inactive"}
{"gene": "MRPS17", "reagent": 1, "cell gain with vemurafenib": 0.76, "lactate per cell with vemurafenib": 1.15, "Outcome": "inactive"}
{"gene": "HGH1", "reagent": 1, "cell gain with vemurafenib": 0.11, "lactate per cell with vemurafenib": 2.21, "Outcome": "inactive"}
{"gene": "PRAMEF7", "reagent": 1, "cell gain with vemurafenib": 1.1, "lactate per cell with vemurafenib": 0.36, "Outcome": "inactive"}
{"gene": "SYCP3", "reagent": 1, "cell gain with vemurafenib": 0.36, "lactate per cell with vemurafenib": 0.93, "Outcome": "inactive"}
{"gene": "STX6", "reagent": 1, "cell gain with vemurafenib": 0.24, "lactate per cell with vemurafenib": 0.58, "Outcome": "inactive"}
{"gene": "ZFR2", "reagent": 1, "cell gain with vemurafenib": 0.86, "lactate per cell with vemurafenib": 0.72, "Outcome": "inactive"}
{"gene": "DGAT2L6", "reagent": 1, "cell gain with vemurafenib": 0.59, "lactate per cell with vemurafenib": 1.09, "Outcome": "inactive"}
